From patent US20260151378A1, “SALT AND CRYSTAL FORM OF HETEROCYCLIC DERIVATIVE INHIBITOR, AND PREPARATION METHOD THEREFOR AND USE THEREOF” (SHANGHAI HANSOH BIOMEDICAL CO., LTD., priority 2022, published 2026)
Some entries share one result that the patent states for a list of compounds.

System: human colorectal cancer cell strain DLD-1 BRCA2−/−
Test: In vivo pharmacodynamics in DLD-1 BRCA2−/− subcutaneous graft tumor model
Design: species or system BALB/c nude mice
Details: DLD-1 BRCA2−/− nude mice, oral, once/day, 28 days
Experimental: • a. […] The cells were passaged every three days, and after passage, the cells were placed in a CO2 incubator to continue the culture. This process was repeated until the cell number meets the needs of in vivo efficacy. • c. The cultured cells were collected, counted using a full-automatic cell counter, resuspended with PBS according to the counting results, and prepared into a cell suspension (at a density of 5×10^7/mL), which was then placed in an ice box for use. • a. Nude mouse was marked with a disposable universal ear tag for mice and rats before inoculation. • b. At the time of inoculation, the cell suspension was mixed well, 0.1-1 mL of cell suspension was taken with a 1 mL syringe, and after removing air bubbles, the syringe was placed on an ice bag until use. • c. The nude mouse was secured with the left hand. The position of the right back near the right shoulder of the nude mouse (inoculation site) was disinfected with a 75% alcohol cotton ball, and inoculation was carried out after 30 seconds. • d. The nude mice were inoculated successively (inoculation with 0.1 mL of cell suspension per mouse). • a. […] According to the weight of tumor-bearing mice and the size of the tumor, the mice were grouped by random grouping. • c. […] Tumors were measured and weighed twice a week after starting administration of test drugs. • e. Animals were euthanized at the end of the experiment. • f. […]

CCc1cc2ncc(CN3CC=C(c4ccc(C(=O)NC5CC5)nc4)CC3)cc2[nH]c1=O [Example 2]
tumor inhibition rate TGI (%): > 90%
